Assay [1] concerns the target BRD4 (BD1) protein (Homo sapiens, UniProt O60885). The assay can be described thus: BRD4 bromodomain TR-FRET inhibitory activity assay. The following applies: read-out: BRD4 (BD1) IC50, Table 4. As for the experimental part:
BRD inhibitory activity was measured using a time resolved fluorescence resonance energy transfer (TR-FRET) experiment to verify the activity of BRD4 bromodomain.
(§1) The assay was performed in a final volume of 14 µL, optimized based on a CREBBP time resolved fluorescence resonance energy transfer (TR-FRET) assay kit (BPS Bioscience, cat. 32613) to maximize an assay window, and performed in a final volume of 14 µL, while maximizing the assay window. A TR-FRET fluorescence acceptor and a Tb donor were diluted in an assay buffer containing 2-[4-(2-hydroxyethyl)piperazin-1-yl]ethanesulfonic acid (HEPES) (hereafter, referred to as an assay buffer, BPS Bioscience, cat. 33012), and 3 µL of each solution was transferred to all wells of a white 384-low-volume well plate (Corning, cat. 4513). 2 µL of 4X Ac-H4 peptide (final concentration 15 nM) was transferred to high control wells and test wells. Each compound was prepared at 10 concentration points by serially diluting 3-fold from the highest concentration in a dimethyl sulfoxide (DMSO) solvent. […] The TR-FRET signal was measured using an EnVision Multilabel plate reader (PerkinElmer; Mirror LNACE/DELFIA Dual/Bias). […] IC50 analysis was determined by standard 4 parameter curve fitting according to an algorithm using GraphPad Prism 7.0 (GraphPad Software Inc., La Jolla, CA, USA). All data are expressed as mean ± standard error of the mean (SEM).
For orientation: In TR-FRET formats the signal depends on donor and acceptor labels being close together.

The chains behind the UniProt entries cited, without tags or fusion partners. Residues count along the entry.
UniProt Q92793, 1085-1192 limits assumed: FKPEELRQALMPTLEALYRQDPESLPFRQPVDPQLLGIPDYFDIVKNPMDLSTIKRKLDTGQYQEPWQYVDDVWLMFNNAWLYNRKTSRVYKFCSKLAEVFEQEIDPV

Assay [2] has as its target CBP BRD protein (Homo sapiens, UniProt Q92793). The assay can be described thus: CBP bromodomain TR-FRET inhibitory activity assay. The following applies: read-out: CBP BRD IC50, Table 3. As to the method: A time resolved fluorescence resonance energy transfer (TR-FRET) experiment was used to verify the activity of CBP bromodomain.
as §1, with “32619)” for “32613)”, “85” for “15”, “sulfoxide” for “sulfoxide (DMSO)”

Structures were worked out from names or drawings and are uncertain. A value given as a limit tells only on which side of the number the result lay.

Consider `Cn1cc(-c2cc3nc(C(C)(C)C)n(-c4cc(OCC5CCC(C)(O)CC5)c5c(c4)n(C)c(=O)n5C)c3cc2F)cn1` (centres unmarked), for which the IC50 – broadly, the concentration at which inhibition is half-maximal – was greater than 5 µM in assay [1] and less than 500 nM in assay [2].

Values taken from EP4831169A1, “NOVEL COMPOUND USED AS CBP/P300 INHIBITOR, AND PHARMACEUTICAL COMPOSITION FOR PREVENTING OR TREATING CANCER, INFLAMMATORY DISORDERS, OR AUTOIMMUNE DISEASES COMPRISING SAME AS ACTIVE INGREDIENT” (dated 2026).
